Taken from: PubChem BioAssay AID1259424 (University of Nebraska Medical Center, 2018)
In all, the deposit lists about 14,000 reagents; below is an unselected part. 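Higher correlation or smaller distance means closer resemblance to KSR1 loss; control wells, including KSR1 knockdowns, recur on many plates.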 Further read-outs or replicates are left out here. The record does not give: the time to read-out.

Purpose: 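Seek colon cancer survival genes behaving like KSR1, using a six-gene signature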 (primary screen)
Cells: human HCT116 colon cancer cells
Reagent: siRNA pool against human genes, 50 nM
Measurement: 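Log2 levels of six mRNAs (branched-DNA multiplex), adjusted by two reference genes and the non-targeting median, then scored against the average KSR1 knockdown pattern as Pearson r and euclidean distance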
Reading the numbers: mean correlation with KSR1 profile: higher = expression change more like KSR1 knockdown; mean distance from KSR1 profile: higher = expression change less like KSR1 knockdown

no.	target	mean correlation with KSR1 profile	mean distance from KSR1 profile
1	PIM2	0.589	2.12
2	MPPE1	-0.339	1.83
3	ABCA6	-0.101	1.52
4	CGN	-0.741	2.57
5	RPS18	-0.439	2.26
6	WDR37	-0.391	3.75
7	TIPIN	0.236	1.52
8	CELF4	-0.862	3.55
9	AFM	-0.171	1.66
10	FAM131B	-0.00531	2.07
11	SDC1	0.173	2.27
12	FAT1	-0.0994	2.11
13	NCF2	0.376	1.97
14	LY86	-0.347	2.04
15	PIK3R3	0.467	1.95
16	CHEK1	0.288	3
17	ZNF608	-0.44	1.9
18	FKBP6	-0.339	2.8
19	ATP13A3	-0.277	3.17
20	RPLP1	0.16	1.29
21	NUBP1	0.421	1.43
22	WASHC4	-0.571	4.22
23	MIA	-0.0576	1.25
24	PDE4A	-0.327	2.4
25	CHRDL2	0.0429	1.28
26	OSBPL3	-0.119	1.61
27	LYPLA2	-0.122	2.44
28	ADGRF3	0.765	1.7
29	AZGP1	-0.155	3.14
30	RUVBL1	-0.325	1.96
31	CYB5R1	-0.814	3.21
32	CCND2	-0.875	3.07
33	LRRC47	-0.603	2.67
34	SUGP2	0.262	1.51
35	FRY	0.708	1.1
36	SYNRG	-0.107	1.81
37	ANTKMT	-0.467	4.4
38	BIRC5	-0.389	2.24
39	PANK3	0.655	0.984
40	MAP9	0.39	2.59
41	VPS37B	-0.452	2.85
42	SHMT2	0.106	2.22
43	TP53RK	0.553	1.57
44	DNAJC7	0.265	0.817
45	EMG1	0.0616	3.02
46	LAG3	0.157	2.6
47	TEDC2	-0.0781	2.42
48	AMOTL2	-0.116	3.14
49	MAP4K3	0.613	1.04
50	RASA3	-0.459	2.38

Already shown: entries from further up.
no.	target	mean correlation with KSR1 profile	mean distance from KSR1 profile
15	PIK3R3	0.467	1.95
16	CHEK1	0.288	3
17	ZNF608	-0.44	1.9
18	FKBP6	-0.339	2.8
19	ATP13A3	-0.277	3.17
20	RPLP1	0.16	1.29
21	NUBP1	0.421	1.43
22	WASHC4	-0.571	4.22
